Drawing on article PMC9700808, this text covers binding for 1 molecule.

These are yes or no findings as the source states them, for the method shown. Binding seen in cells or lysates may run through a third protein. Some entries that bind do so weakly or less than the wild type.

The test concerns the target PARP1 (poly-ADP-ribose polymerase 1), endogenous (human (endogenous in HEK293T, HCT116, HeLa)), P09874. Briefly: co-IP; endogenous proteins; 200 µg total extract of HCT116 cells cross-linked with 1% formaldehyde for 10 min; anti-PARP1 or anti-SET8 antibody, rabbit IgG as control; overnight at 4 °C in TD buffer (50 mM HEPES pH 7.5, 250 mM NaCl, 1% Triton X-100); protein G magnetic beads. As to conditions: remark: other sources report otherwise.

B1: SET8, endogenous, Q9NQR1 1-393 (protein)
chain: MGEGGAAAALVAAAAAAAAAAAAVVAGQRRRRLGRRARCHGPGRAAGGKMSKPCAVEAAAAAVAATAPGPEMVERRGPGRPRTDGENVFTGQSKIYSYMSPNKCSGMRFPLQEENSVTHHEVKCQGKPLAGIYRKREEKRNAGNAVRSAMKSEEQKIKDARKGPLVPFPNQKSEAAEPPKTPPSSCDSTNAAIAKQALKKPIKGKQAPRKKAQGKTQQNRKLTDFYPVRRSSRKSKAELQSEERKRIDELIESGKEEGMKIDLIDGKGRGVIATKQFSRGDFVVEYHGDLIEITDAKKREALYAQDPSTGCYMYYFQYLSKTYCVDATRETNRLGRLINHSKCGNCQTKLHDIDGVPHLILIASRDIAAGEELLYDYGDRSKASIEAHPWLKH
Take B1: the binding result was “binds”.
